Reference: article doi:10.1101/605378
No constants are given. Whether binding was seen depends on the method and setting. Binding seen in cells or lysates may run through a third protein. A yes stands for co-enrichment or nearness to the bait. Other partners may have been found. Sequences can lack the tags named with a protein.

Chains of the proteins cited; added tags and fusions are not shown.
UniProt G5E829: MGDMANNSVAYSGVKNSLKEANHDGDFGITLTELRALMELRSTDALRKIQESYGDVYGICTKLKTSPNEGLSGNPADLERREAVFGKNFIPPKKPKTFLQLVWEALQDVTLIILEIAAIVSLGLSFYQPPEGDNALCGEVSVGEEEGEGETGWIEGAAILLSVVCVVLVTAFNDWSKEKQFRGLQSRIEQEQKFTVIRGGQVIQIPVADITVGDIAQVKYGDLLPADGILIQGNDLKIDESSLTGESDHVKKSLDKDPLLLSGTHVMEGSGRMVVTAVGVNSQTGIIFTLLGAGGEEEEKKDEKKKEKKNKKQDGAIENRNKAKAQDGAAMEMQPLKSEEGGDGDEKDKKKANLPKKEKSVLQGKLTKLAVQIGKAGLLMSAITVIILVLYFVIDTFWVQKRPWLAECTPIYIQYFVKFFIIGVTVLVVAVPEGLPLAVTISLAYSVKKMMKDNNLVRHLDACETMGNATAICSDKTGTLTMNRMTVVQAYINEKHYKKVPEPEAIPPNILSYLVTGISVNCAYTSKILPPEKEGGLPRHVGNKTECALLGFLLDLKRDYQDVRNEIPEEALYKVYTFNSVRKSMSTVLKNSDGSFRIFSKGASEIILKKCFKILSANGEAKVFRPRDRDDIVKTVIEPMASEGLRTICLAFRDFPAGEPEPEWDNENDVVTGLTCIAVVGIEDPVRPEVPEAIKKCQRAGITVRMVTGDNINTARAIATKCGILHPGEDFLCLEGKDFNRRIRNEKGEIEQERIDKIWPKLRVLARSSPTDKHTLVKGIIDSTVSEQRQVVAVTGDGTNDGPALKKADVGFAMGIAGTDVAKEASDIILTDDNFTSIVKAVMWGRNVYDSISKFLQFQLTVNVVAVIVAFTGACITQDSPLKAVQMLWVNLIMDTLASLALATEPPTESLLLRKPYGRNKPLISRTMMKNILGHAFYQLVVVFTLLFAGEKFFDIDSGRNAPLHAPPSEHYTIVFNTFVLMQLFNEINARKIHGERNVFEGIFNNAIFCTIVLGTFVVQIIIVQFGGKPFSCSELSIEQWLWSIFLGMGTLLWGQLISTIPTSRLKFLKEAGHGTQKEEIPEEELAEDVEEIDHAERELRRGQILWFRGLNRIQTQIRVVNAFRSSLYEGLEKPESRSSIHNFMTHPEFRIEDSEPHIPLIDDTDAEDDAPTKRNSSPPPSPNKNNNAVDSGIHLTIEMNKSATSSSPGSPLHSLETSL
UniProt Q0VF55: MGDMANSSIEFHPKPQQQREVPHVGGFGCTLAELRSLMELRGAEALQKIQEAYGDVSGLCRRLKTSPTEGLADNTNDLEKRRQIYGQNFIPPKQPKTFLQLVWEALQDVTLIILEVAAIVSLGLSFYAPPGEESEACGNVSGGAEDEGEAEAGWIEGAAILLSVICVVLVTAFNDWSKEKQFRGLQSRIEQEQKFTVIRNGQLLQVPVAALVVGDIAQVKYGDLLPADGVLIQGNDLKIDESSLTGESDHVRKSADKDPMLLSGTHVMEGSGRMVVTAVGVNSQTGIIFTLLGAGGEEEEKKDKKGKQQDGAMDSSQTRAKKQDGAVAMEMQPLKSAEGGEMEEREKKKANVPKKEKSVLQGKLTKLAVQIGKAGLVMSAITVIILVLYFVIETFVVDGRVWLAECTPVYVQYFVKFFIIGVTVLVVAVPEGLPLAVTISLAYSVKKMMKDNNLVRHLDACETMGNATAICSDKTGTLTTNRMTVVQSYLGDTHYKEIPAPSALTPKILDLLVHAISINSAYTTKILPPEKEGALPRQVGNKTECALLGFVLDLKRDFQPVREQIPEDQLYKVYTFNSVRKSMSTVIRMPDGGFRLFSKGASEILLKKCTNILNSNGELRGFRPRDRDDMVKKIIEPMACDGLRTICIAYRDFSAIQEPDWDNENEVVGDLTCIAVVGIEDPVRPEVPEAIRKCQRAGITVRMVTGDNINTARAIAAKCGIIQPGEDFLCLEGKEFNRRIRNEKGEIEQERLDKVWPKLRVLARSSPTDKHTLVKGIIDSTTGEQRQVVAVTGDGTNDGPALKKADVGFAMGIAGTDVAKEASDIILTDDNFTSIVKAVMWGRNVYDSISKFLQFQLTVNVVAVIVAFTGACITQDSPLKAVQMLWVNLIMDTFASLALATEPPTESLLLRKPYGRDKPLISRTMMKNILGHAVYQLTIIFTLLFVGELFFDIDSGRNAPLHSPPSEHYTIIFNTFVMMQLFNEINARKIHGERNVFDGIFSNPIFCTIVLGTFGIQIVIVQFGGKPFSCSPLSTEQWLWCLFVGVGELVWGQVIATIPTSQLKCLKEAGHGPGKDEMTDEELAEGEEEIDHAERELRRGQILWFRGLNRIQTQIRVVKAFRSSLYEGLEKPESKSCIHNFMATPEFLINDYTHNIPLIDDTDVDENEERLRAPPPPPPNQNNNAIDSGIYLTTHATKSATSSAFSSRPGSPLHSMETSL
UniProt Q6Q477: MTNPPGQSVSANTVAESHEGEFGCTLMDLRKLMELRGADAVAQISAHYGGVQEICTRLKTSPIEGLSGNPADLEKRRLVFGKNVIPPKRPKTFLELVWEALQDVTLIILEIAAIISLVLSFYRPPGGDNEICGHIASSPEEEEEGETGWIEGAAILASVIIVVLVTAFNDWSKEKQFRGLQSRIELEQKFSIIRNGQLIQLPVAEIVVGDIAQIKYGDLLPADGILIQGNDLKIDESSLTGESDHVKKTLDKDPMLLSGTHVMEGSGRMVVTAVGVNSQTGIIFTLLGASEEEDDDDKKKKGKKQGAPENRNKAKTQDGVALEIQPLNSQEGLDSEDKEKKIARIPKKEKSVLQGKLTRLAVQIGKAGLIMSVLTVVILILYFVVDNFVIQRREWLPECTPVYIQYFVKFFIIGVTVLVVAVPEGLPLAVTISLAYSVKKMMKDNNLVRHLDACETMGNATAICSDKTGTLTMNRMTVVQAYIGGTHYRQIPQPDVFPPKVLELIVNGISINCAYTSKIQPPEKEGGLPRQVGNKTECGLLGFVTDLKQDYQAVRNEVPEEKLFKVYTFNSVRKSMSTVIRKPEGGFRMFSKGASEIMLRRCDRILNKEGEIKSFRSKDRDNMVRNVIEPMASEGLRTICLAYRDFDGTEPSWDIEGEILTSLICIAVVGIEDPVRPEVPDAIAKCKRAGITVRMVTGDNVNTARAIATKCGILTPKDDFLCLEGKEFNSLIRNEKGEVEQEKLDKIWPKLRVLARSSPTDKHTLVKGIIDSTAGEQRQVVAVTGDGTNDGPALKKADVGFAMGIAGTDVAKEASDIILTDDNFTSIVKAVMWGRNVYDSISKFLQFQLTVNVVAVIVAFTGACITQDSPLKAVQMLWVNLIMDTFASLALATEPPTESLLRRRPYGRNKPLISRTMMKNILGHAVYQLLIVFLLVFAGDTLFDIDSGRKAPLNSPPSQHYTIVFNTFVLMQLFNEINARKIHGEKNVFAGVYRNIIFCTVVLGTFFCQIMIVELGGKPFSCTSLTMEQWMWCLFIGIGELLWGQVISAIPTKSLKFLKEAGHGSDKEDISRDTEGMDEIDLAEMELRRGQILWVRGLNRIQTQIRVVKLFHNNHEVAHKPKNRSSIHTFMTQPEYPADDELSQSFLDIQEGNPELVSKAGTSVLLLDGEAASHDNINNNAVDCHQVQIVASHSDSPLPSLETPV
UniProt Q9R0K7: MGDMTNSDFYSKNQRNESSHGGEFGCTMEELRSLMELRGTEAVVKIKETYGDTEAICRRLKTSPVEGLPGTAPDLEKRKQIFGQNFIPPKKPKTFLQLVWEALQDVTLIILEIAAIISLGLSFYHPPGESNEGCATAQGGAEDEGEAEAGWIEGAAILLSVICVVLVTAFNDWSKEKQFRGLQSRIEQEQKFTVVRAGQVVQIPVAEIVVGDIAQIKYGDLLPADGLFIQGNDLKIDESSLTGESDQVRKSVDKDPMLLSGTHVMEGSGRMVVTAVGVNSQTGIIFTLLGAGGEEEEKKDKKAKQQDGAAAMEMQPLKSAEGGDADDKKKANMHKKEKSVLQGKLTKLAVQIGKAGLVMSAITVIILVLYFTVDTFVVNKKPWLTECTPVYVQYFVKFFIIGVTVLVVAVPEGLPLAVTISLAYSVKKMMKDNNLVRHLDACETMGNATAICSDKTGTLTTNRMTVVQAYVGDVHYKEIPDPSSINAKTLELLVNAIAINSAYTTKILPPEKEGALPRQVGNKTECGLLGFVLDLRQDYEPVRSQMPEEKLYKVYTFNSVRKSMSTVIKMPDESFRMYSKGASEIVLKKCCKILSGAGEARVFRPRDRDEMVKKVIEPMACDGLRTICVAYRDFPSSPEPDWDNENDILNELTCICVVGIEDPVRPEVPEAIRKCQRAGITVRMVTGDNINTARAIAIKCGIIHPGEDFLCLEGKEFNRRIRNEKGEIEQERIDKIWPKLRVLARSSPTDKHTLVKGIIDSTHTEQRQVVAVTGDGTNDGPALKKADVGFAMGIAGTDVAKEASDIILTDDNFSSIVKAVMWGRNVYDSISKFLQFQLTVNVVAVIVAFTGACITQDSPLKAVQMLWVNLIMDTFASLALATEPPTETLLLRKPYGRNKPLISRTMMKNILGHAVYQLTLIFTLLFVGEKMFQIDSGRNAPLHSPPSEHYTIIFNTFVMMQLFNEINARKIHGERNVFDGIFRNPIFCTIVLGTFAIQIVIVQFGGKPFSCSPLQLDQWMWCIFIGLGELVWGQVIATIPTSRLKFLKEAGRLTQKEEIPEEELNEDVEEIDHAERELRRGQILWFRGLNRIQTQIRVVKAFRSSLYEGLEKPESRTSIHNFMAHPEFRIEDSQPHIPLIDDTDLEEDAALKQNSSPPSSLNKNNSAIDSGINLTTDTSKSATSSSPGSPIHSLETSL

T1: Flag-CNTNAP2-ecto (ectodomain of CNTNAP2) (human) (UniProt Q9UHC6)
T1 sequence: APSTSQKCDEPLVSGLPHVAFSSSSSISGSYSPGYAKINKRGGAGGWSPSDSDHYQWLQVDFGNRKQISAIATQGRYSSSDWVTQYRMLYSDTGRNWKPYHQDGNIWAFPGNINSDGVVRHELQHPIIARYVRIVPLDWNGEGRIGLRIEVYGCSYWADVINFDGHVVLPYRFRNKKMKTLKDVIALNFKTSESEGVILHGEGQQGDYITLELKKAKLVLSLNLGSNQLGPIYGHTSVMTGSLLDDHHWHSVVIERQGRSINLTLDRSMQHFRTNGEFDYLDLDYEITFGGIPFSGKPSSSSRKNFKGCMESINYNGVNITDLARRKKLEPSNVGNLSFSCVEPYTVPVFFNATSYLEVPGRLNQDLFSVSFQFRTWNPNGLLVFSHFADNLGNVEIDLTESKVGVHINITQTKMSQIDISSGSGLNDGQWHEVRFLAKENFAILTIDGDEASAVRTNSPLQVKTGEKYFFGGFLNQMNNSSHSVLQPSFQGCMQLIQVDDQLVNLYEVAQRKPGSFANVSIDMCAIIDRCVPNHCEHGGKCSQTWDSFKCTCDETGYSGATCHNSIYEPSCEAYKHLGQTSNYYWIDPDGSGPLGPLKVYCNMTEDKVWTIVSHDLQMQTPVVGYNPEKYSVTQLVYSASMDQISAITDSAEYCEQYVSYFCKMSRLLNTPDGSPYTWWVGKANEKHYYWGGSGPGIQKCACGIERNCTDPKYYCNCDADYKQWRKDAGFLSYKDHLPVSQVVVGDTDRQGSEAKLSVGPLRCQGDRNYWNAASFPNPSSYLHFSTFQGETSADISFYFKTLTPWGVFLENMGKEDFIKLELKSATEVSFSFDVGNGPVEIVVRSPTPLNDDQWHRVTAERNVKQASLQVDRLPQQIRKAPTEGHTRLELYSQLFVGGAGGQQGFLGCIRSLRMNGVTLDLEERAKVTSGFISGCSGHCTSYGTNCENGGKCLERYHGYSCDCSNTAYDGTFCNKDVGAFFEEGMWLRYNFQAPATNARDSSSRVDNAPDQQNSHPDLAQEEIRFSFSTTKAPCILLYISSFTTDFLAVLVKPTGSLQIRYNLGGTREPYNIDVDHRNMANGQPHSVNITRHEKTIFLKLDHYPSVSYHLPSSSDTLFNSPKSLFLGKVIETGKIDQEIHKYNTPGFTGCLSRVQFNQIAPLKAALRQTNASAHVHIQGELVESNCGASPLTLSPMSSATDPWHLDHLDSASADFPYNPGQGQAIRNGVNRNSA

B1: contactin-1 (protein, UniProt P12960 21-1001)
chain: DFTWHRRYGHGVSEEDKGFGPIFEEQPINTIYPEESLEGKVSLNCRARASPFPVYKWRMNNGDVDLTNDRYSMVGGNLVINNPDKQKDAGVYYCLASNNYGMVRSTEATLSFGYLDPFPPEERPEVKVKEGKGMVLLCDPPYHFPDDLSYRWLLNEFPVFITMDKRRFVSQTNGNLYIANVESSDRGNYSCFVSSPSITKSVFSKFIPLIPIPERTTKPYPADIVVQFKDIYTMMGQNVTLECFALGNPVPDIRWRKVLEPMPSTAEISTSGAVLKIFNIQLEDEGLYECEAENIRGKDKHQARIYVQAFPEWVEHINDTEVDIGSDLYWPCIATGKPIPTIRWLKNGYSYHKGELRLYDVTFENAGMYQCIAENAYGSIYANAELKILALAPTFEMNPMKKKILAAKGGRVIIECKPKAAPKPKFSWSKGTEWLVNSSRILIWEDGSLEINNITRNDGGIYTCFAENNRGKANSTGTLVITNPTRIILAPINADITVGENATMQCAASFDPALDLTFVWSFNGYVIDFNKEITHIHYQRNFMLDANGELLIRNAQLKHAGRYTCTAQTIVDNSSASADLVVRGPPGPPGGLRIEDIRATSVALTWSRGSDNHSPISKYTIQTKTILSDDWKDAKTDPPIIEGNMESAKAVDLIPWMEYEFRVVATNTLGTGEPSIPSNRIKTDGAAPNVAPSDVGGGGGTNRELTITWAPLSREYHYGNNFGYIVAFKPFDGEEWKKVTVTNPDTGRYVHKDETMTPSTAFQVKVKAFNNKGDGPYSLVAVINSAQDAPSEAPTEVGVKVLSSSEISVHWKHVLEKIVESYQIRYWAGHDKEAAAHRVQVTSQEYSARLENLLPDTQYFIEVGACNSAGCGPSSDVIETFTRKAPPSQPPRIISSVRSGSRYIITWDHVVALSNESTVTGYKILYRPDGQHDGKLFSTHKHSIEVPIPRDGEYVVEVRAHSDGGDGVVSQVKISGVSTLS

molecular target: T1, Flag-CNTNAP2-ecto (ectodomain of CNTNAP2) (human); experiment: affinity purification with mass spectrometry

Molecule	binding
PMCA1 (one of "all four members of the PMCA/ATP2B family") (from UniProt G5E829 1-1220)	binds
PMCA3 (one of "all four members of the PMCA/ATP2B family") (from UniProt Q0VF55 1-1220)	binds
PMCA4 (one of "all four members of the PMCA/ATP2B family") (from UniProt Q6Q477 1-1205)	binds
PMCA2 (mouse cortical membranes) (from UniProt Q9R0K7 1-1198)	binds
B1	binds
